# This is one part of the list. Shown are side measurements of this screen, not its main read-out; they come without a call. Most of these compounds were active or inconclusive in the main read-out, so they are no random draw. The note in brackets gives the kind of curve behind each potency; many fits are weak.
# Experiment: Cell signaling CRE-BLA (Fsk stim)
# Settings: CHO CRE-bla reporter (cAMP response element driving beta-lactamase), forskolin EC10, beta-lactamase ratio; measured here: 460 nm blue channel
# Procedure, shortened: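 Reporter-gene assay: CHO cells with beta-lactamase behind cAMP responsive elements, co-treated with compound and EC10 NKH 477 for 3 hours at 37 degrees Celsius. Activity came from the 460/530 nm CCF4 emission ratio.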
row,SMILES,AC50
1,Cc1cc(C)c2c(n1)nn1c(N3CCOCC3)cc(C)nc21,"1.26 µM [rising, full curve]"
2,Cc1noc(C)c1-c1ccc2ncnc(NCc3ccccc3)c2c1,"7.94 µM [rising, partial curve]"
3,CN(C)C(=O)c1ccc(-c2cc(Nc3ccccc3)ncn2)cc1,"5.01 µM [rising, single point]"
4,COC(=O)c1ccccc1NC(=O)COc1ccccc1,"20 µM [rising, single point]"
5,CCCCC(=O)Nc1cccc2c1C(=O)N(c1ccccc1)C2=O,"10 µM [rising, single point]"
6,CC(Oc1ccc(Cl)cc1Cl)C(=O)N(Cc1ccco1)C1CCS(=O)(=O)C1 (stereo not given),"10 µM [rising, single point]"
7,C=C1CSc2nc(=O)c3c4c(sc3n21)CCCC4,"12.6 µM [rising, single point]"
8,COc1ccc(S(=O)(=O)N(C)CC(=O)N2CCC(C(N)=O)CC2)cc1Cl,"5.01 µM [falling, partial curve, poor fit]"
9,Cc1csc(SCC(=O)Nc2cc(C(C)(C)C)nn2-c2ccccc2)n1,"0.02 µM [falling, full curve, poor fit]"
10,Cc1nn(Cc2ccccc2)c(C)c1C(=O)OCC(=O)c1cc(C)n(C2CC2)c1C,"0.398 µM [falling, full curve]"
11,CCC(=O)N1CCc2cc(OC)c(OC)cc2C1COc1ccc(C(=O)OC)cc1 (stereo not given),"3.98 µM [rising, partial curve]"
12,CCOC(=O)c1cc2ccc(OC(=O)c3ccco3)cc2oc1=O,"3.98 µM [rising, partial curve]"
13,CCOCc1cc(C2NC(=O)NC(C)=C2C(=O)OCC)ccc1OC (stereo not given),"12.6 µM [rising, partial curve]"
14,CC1=C(C(=O)OCc2ccccc2)C(c2ccc(Cl)cc2)NC(=O)N1CCCCCC(=O)O (stereo not given),"12.6 µM [rising, partial curve]"
15,COc1cc(-c2nn3c(-c4ccccc4)nnc3s2)cc(OC)c1OC,"1 µM [rising, full curve]"
16,CN(Cc1ccco1)c1nc(-c2ccoc2)nc2ccccc12,"3.98 µM [rising, full curve]"
17,CCCCn1c(SCC(=O)OC)nc2c1c(=O)n(C)c(=O)n2C,"12.6 µM [rising, partial curve]"
18,Cc1cc(C)c2c(n1)nn1c(N3CCN(c4cccc(Cl)c4)CC3)cc(C)nc21,"0.00316 µM [rising, full curve, poor fit]"
19,COc1ccc(CC(=O)Nc2cccc(-c3nnc(-c4ccccc4)o3)c2)cc1OC,"25.1 µM [falling, single point]"
20,Cc1ccc(S(=O)(=O)N2CCC(C(=O)N[C@@H](C)C(=O)NCc3ccccc3)CC2)cc1,"0.00794 µM [falling, partial curve, poor fit]"
21,Clc1ccc(OCc2nn3c(-c4ccco4)nnc3s2)cc1,"12.6 µM [rising, single point]"
22,Cc1ccc(-n2c3c(cc(C(=O)NCc4ccco4)c2=O)C(=O)CC(C)(C)C3)cc1,"0.398 µM [rising, partial curve]"
23,Cc1ccc(-c2nn(-c3ccccc3)cc2C2SCC(=O)N2Cc2ccccc2)o1 (stereo not given),"15.8 µM [falling, partial curve]"

# An excerpt from above in order of molecular weight, smallest number first:
row,SMILES,AC50
7,C=C1CSc2nc(=O)c3c4c(sc3n21)CCCC4,"12.6 µM [rising, single point]"
9,Cc1csc(SCC(=O)Nc2cc(C(C)(C)C)nn2-c2ccccc2)n1,"0.02 µM [falling, full curve, poor fit]"
18,Cc1cc(C)c2c(n1)nn1c(N3CCN(c4cccc(Cl)c4)CC3)cc(C)nc21,"0.00316 µM [rising, full curve, poor fit]"

# Following part.

row,SMILES,AC50
1,COc1ccc(C2CC(=O)c3cnc(N4CCN(Cc5ccccc5)CC4)nc3C2)cc1 (stereo not given),"12.6 µM [rising, single point]"
2,N#CCCn1c(=O)c(-c2ccc(Cl)cc2)nc2cnc(N3CCNCC3)nc21,"2 µM [rising, full curve]"
3,CCOC(=O)c1ccccc1NC(=O)Cn1cnc2c(cnn2C(C)(C)C)c1=O,"12.6 µM [rising, single point]"
4,Cc1cnc(CNc2ncnc3ccc(-c4ccoc4)cc23)cn1,"10 µM [falling, partial curve]"
5,O=C1CC(Sc2nnc(-c3ccccc3)o2)C(=O)N1c1ccccc1 (stereo not given),"31.6 µM [falling, single point]"
6,CCCc1nc2oc3c(NCCOCCO)ncnc3c2c2c1COC(C)(C)C2,"0.501 µM [rising, full curve]"
7,Cc1cc(C)n(CCOc2ccc(Cl)cc2Cl)n1,"10 µM [rising, partial curve]"
8,CCOC(=O)CC(=O)CSc1nc(-c2cccnc2)cc(C)c1C#N,"12.6 µM [rising, partial curve]"
9,O=c1[nH]c(SCc2ccc(F)cc2)nc2c1cnn2-c1ccc(F)cc1,"3.16 µM [rising, full curve]"
10,O=C(CCc1ccc(O)cc1)c1c(O)cc(O)cc1O,"25.1 µM [falling, partial curve, poor fit]"
11,CCOC(=O)c1ccc(N2C(=O)c3n[nH]c(C)c3C2c2ccccn2)cc1 (stereo not given),"12.6 µM [rising, single point]"
12,c1ccc(Cn2c(Nn3cnnc3)nc3ccccc32)cc1,"0.00398 µM [falling, full curve, poor fit]"
13,COc1ccc(S(=O)(=O)N2CCCN(CCC(=O)Nc3cccc(C(F)(F)F)c3)CC2)cc1,"12.6 µM [rising, single point]"
14,Cc1cccc(OCC(=O)Nc2cc(C)ccc2O)c1,"0.794 µM [rising, full curve]"
15,CC(=O)C1=C(O)C=C2Oc3c(C(C)=O)c(O)c(C)c(O)c3[C@]2(C)C1=O,"25.1 µM [rising, partial curve, poor fit]"
16,CCc1c(C)nc2ncnn2c1N1CCC(C(=O)Nc2ccccc2)CC1,"12.6 µM [rising, single point]"
17,COc1cc(C(=O)N2CCC(NC(=O)C(Cc3ccccc3)NC(C)=O)CC2)cc(OC)c1OC (stereo not given),"5.01 µM [falling, partial curve]"
18,CCOC(=O)C1=C(O)C(=O)N(c2ccc(S(N)(=O)=O)cc2)C1c1ccccc1 (stereo not given),"0.00316 µM [falling, full curve, poor fit]"
19,CC(NC(=O)c1ccc(CS(=O)(=O)Cc2ccccc2F)o1)c1ccc2c(c1)OCCO2 (stereo not given),"0.126 µM [falling, full curve]"
20,COC(=O)c1ccccc1NC(=O)N1CSC[C@H]1C(=O)OC,"10 µM [falling, partial curve]"
21,CCOc1ccc(OCC)c(NC(=O)CN(c2ccc(C)cc2)S(=O)(=O)c2c(C)noc2C)c1,"1 µM [rising, full curve, poor fit]"
22,Cc1ccc2nc3c(cc(C(=O)NCCCn4ccnc4)n3C)c(=O)n2c1,"5.01 µM [falling, partial curve]"

# Entries from the list above that have two or more sulfur atoms (2):
row,SMILES,AC50
7,C=C1CSc2nc(=O)c3c4c(sc3n21)CCCC4,"12.6 µM [rising, single point]"
9,Cc1csc(SCC(=O)Nc2cc(C(C)(C)C)nn2-c2ccccc2)n1,"0.02 µM [falling, full curve, poor fit]"

# Reference: PubChem BioAssay AID662 (National Center for Advancing Translational Sciences (NCATS), 2007)
